At least one compound was matched to its structure with a doubt left.
Settings: PDD affected parrots

## Cc1ccc(-c2cc(C(F)(F)F)nn2-c2ccc(S(N)(=O)=O)cc2)cc1 [Celecoxib]
  clinical recovery: very slow and gradual improvement
